These are yes or no findings as the source states them, for the method shown. Binding can be weak; no strength is given. For part of these data: In cells and extracts the contact can be indirect. For part of these data: Where a sequence is shown, tags or fusion partners need not be part of it. One block for each molecule: values may come before it.
Tests used:
[1] = target: T1, Haus3 with C-terminal GFP-TwinStrep (X. laevis) (UniProt Q6DCY9); experiment: co-purification of co-expressed subunits (StrepTactin, SEC) + negative stain EM; T-III subunits co-expressed in Sf9, one carrying C-terminal GFP-TwinStrep; StrepTactin Superflow, elution with 2.5 mM d-desthiobiotin, Superose 6 Increase in CSF-XB; 150 nM on carbon grids, 0.75% uranyl acetate, 2D class averages
T1 sequence: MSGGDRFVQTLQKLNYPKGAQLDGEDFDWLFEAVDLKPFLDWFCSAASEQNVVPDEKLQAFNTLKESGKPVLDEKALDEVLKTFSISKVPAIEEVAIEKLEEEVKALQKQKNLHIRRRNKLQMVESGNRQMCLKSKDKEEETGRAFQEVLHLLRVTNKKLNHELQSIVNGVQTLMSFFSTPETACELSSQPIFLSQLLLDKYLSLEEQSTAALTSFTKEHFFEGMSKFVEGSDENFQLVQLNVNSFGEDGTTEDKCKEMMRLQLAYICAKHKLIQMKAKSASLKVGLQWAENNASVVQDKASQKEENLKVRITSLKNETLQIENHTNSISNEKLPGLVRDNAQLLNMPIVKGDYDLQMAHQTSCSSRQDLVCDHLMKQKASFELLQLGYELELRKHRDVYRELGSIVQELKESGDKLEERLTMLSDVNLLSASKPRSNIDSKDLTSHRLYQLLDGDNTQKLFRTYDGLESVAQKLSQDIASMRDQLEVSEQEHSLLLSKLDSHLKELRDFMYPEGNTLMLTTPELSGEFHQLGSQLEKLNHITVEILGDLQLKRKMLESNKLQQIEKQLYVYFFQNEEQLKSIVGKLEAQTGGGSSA

[2] = target: T2, Haus3 (X. laevis) (UniProt Q6DCY9); experiment: cryo-EM structure; single-particle cryo-EM of the purified augmin octamer (Haus6 1-430), 0.05% NP-40, thin carbon film grids; 6.9 Å map; AlphaFold2-Multimer models of T-II and T-III rigid-body fit into the map; both purified
T2 sequence: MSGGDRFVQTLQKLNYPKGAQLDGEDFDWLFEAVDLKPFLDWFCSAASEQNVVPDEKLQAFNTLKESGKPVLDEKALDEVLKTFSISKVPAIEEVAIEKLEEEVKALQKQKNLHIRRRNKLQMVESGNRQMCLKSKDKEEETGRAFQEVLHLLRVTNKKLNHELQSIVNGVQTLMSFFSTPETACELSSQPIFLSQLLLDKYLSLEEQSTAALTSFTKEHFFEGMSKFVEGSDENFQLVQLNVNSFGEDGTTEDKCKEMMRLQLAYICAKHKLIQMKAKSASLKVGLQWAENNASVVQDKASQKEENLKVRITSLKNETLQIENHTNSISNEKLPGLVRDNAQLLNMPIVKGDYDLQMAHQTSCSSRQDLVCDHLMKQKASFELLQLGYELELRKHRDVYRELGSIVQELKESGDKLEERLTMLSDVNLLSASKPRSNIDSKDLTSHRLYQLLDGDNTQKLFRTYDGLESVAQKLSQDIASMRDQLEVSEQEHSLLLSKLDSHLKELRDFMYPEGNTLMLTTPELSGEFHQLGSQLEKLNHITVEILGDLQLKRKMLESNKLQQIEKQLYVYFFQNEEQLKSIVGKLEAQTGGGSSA

[3] = target: T3, Haus8 (X. laevis) (UniProt Q0IHJ3); experiment: as above
T3 sequence: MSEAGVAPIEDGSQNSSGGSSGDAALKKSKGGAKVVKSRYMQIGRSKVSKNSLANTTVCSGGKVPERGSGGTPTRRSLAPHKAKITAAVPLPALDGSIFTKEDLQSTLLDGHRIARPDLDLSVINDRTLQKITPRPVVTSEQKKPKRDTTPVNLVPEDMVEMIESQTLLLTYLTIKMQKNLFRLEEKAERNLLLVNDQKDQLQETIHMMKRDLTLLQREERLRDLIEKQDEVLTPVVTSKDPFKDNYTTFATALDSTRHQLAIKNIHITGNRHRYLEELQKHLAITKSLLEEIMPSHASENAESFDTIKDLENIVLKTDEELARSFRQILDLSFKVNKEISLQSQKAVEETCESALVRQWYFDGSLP

[4] = target: Haus1 with C-terminal GFP-TwinStrep (X. laevis); experiment: co-purification of co-expressed subunits (StrepTactin, SEC) + negative stain EM; T-III subunits co-expressed in Sf9, one carrying C-terminal GFP-TwinStrep; StrepTactin Superflow, elution with 2.5 mM d-desthiobiotin, Superose 6 Increase in CSF-XB; 150 nM on carbon grids, 0.75% uranyl acetate, 2D class averages
[5] = target: Haus5 with C-terminal GFP-TwinStrep (X. laevis); experiment: as above
[6] = target: Haus4 with C-terminal GFP-TwinStrep (X. laevis); experiment: as above
[7] = target: Haus5 (X. laevis); experiment: cryo-EM structure; single-particle cryo-EM of the purified augmin octamer (Haus6 1-430), 0.05% NP-40, thin carbon film grids; 6.9 Å map; AlphaFold2-Multimer models of T-II and T-III rigid-body fit into the map; both purified
[8] = target: Haus7 (X. laevis); experiment: as above
[9] = target: Haus2 (X. laevis); experiment: as above

binding [1]: binds
binding [2]: binds
Molecule: Haus1 (X. laevis)

binding [1]: binds
Molecule: Haus5 (X. laevis)

binding [3]: binds
Molecule: Haus6^1–430 (X. laevis) (domain or fragment)

binding [1]: binds
binding [2]: binds
Molecule: Haus4 (X. laevis)

binding [4]: binds
binding [5]: binds
binding [6]: binds
binding [7]: binds
B1: Haus3 (protein, UniProt Q6DCY9 1-597)
chain: MSGGDRFVQTLQKLNYPKGAQLDGEDFDWLFEAVDLKPFLDWFCSAASEQNVVPDEKLQAFNTLKESGKPVLDEKALDEVLKTFSISKVPAIEEVAIEKLEEEVKALQKQKNLHIRRRNKLQMVESGNRQMCLKSKDKEEETGRAFQEVLHLLRVTNKKLNHELQSIVNGVQTLMSFFSTPETACELSSQPIFLSQLLLDKYLSLEEQSTAALTSFTKEHFFEGMSKFVEGSDENFQLVQLNVNSFGEDGTTEDKCKEMMRLQLAYICAKHKLIQMKAKSASLKVGLQWAENNASVVQDKASQKEENLKVRITSLKNETLQIENHTNSISNEKLPGLVRDNAQLLNMPIVKGDYDLQMAHQTSCSSRQDLVCDHLMKQKASFELLQLGYELELRKHRDVYRELGSIVQELKESGDKLEERLTMLSDVNLLSASKPRSNIDSKDLTSHRLYQLLDGDNTQKLFRTYDGLESVAQKLSQDIASMRDQLEVSEQEHSLLLSKLDSHLKELRDFMYPEGNTLMLTTPELSGEFHQLGSQLEKLNHITVEILGDLQLKRKMLESNKLQQIEKQLYVYFFQNEEQLKSIVGKLEAQTGGGSSA

binding [8]: binds
binding [9]: binds
B2: Haus8 (protein, UniProt Q0IHJ3 1-367)
chain: MSEAGVAPIEDGSQNSSGGSSGDAALKKSKGGAKVVKSRYMQIGRSKVSKNSLANTTVCSGGKVPERGSGGTPTRRSLAPHKAKITAAVPLPALDGSIFTKEDLQSTLLDGHRIARPDLDLSVINDRTLQKITPRPVVTSEQKKPKRDTTPVNLVPEDMVEMIESQTLLLTYLTIKMQKNLFRLEEKAERNLLLVNDQKDQLQETIHMMKRDLTLLQREERLRDLIEKQDEVLTPVVTSKDPFKDNYTTFATALDSTRHQLAIKNIHITGNRHRYLEELQKHLAITKSLLEEIMPSHASENAESFDTIKDLENIVLKTDEELARSFRQILDLSFKVNKEISLQSQKAVEETCESALVRQWYFDGSLP

Reference: paper PMC10102177
